From patent publication US9863962, “Aptamers and sensing technology used for detection of glycated hemoglobin in whole blood” (Alfaisal University) come the findings set out here.

For some assays here: A negative result means that nothing was seen under these conditions. For some assays here: A weaker result is weaker than the reference pair of the same experiment.

Data set [1] concerns hemoglobin (Hb, non-glycated / total Hb). In words: binding assay. The following applies: impedance; no significant response with non-glycated Hb; purified native protein; single-stranded DNA.
In data set [2] the test system is glycated hemoglobin HbA1c. Briefly: binding assay. Conditions: impedance screen at 25 nM; did not show good binding; purified native protein; single-stranded DNA.

Consider “GGGGACACAGCAACACACCCACCCACCAGCCCCAGCATCATGCCCATCCGTCGTGTGTG [G20]”, for which the binding result in data set [1] is reported as “no binding”.

In the case of “CGCACACCAGCACACTCAAAAGAACATACAAAGAACGTCGATCCACATACCACGGCTGCC [G22]”, in data set [2], the binding result is reported as “binds more weakly”.
